Data on three molecules can be found in publication PMC7705756.

The chains behind the UniProt entries cited, without tags or fusion partners.
UniProt P25440: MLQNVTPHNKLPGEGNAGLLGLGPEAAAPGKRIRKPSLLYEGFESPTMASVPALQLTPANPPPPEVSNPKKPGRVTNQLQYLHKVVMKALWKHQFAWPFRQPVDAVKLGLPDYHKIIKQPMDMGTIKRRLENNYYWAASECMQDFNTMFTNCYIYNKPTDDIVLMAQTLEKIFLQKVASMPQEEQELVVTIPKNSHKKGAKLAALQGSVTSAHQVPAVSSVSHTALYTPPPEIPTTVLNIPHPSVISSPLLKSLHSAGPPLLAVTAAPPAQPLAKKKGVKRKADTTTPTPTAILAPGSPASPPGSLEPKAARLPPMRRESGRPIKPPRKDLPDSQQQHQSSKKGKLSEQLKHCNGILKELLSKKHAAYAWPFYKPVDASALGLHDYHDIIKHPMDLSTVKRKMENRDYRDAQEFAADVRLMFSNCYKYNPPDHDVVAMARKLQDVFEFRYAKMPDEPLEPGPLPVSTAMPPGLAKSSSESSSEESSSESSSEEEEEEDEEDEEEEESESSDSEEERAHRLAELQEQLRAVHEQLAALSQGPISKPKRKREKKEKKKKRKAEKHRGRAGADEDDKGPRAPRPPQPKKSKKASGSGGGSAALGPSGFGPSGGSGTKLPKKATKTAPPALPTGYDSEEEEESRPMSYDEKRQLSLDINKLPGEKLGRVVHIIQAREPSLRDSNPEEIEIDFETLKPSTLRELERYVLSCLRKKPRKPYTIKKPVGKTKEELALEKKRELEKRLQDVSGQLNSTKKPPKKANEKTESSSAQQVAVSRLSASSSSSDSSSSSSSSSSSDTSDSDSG
UniProt P51532: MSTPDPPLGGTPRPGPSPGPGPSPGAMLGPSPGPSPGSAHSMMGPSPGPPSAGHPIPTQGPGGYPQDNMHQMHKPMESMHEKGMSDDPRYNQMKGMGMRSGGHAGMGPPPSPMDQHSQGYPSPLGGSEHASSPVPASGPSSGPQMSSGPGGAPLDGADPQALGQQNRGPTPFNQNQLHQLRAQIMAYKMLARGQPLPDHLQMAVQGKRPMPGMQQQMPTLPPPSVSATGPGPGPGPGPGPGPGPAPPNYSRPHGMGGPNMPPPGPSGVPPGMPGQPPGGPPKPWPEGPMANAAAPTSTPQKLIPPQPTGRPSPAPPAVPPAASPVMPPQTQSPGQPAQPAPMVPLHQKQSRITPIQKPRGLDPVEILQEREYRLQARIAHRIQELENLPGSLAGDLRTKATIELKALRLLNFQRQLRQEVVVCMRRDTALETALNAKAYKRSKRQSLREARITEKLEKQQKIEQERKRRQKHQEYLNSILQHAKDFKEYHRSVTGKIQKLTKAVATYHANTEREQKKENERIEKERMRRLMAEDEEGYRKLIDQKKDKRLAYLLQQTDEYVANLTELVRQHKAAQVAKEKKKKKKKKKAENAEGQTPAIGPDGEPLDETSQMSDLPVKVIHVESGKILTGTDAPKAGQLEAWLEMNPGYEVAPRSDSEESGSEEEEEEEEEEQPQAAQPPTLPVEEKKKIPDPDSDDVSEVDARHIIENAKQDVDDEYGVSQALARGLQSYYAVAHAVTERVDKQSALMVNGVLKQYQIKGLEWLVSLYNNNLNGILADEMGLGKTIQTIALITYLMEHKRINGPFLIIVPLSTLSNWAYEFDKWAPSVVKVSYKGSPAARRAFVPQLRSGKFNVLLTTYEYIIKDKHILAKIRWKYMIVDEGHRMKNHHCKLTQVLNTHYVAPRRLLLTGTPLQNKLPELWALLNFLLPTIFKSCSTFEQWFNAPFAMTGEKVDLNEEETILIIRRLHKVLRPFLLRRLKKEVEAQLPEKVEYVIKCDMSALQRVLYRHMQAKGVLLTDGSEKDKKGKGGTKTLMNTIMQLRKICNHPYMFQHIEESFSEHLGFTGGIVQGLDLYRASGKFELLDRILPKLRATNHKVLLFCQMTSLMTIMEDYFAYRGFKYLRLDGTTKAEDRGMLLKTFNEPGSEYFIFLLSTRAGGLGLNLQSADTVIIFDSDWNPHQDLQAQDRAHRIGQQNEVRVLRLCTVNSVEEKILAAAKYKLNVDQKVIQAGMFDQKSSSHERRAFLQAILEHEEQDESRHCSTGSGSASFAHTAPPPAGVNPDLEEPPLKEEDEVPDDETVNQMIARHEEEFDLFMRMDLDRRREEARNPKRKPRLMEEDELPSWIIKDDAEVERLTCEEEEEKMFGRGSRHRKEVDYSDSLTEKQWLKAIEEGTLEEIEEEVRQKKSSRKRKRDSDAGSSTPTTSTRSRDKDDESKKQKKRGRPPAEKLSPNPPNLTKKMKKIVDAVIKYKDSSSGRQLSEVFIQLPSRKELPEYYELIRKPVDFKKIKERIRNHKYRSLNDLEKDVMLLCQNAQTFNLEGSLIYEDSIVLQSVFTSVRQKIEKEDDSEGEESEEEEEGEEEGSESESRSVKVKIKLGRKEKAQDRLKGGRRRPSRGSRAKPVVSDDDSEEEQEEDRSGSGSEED

These are yes or no findings as the source states them, for the method shown. For some of these results: In cells and extracts the contact can be indirect. Some binding calls cover weakened binding; strength is not graded here.

The target of test [1] is T1, C-terminal end of USP24 (a.a. 2078-2620), yeast two-hybrid bait (human) (UniProt Q9UPU5).
T1 sequence: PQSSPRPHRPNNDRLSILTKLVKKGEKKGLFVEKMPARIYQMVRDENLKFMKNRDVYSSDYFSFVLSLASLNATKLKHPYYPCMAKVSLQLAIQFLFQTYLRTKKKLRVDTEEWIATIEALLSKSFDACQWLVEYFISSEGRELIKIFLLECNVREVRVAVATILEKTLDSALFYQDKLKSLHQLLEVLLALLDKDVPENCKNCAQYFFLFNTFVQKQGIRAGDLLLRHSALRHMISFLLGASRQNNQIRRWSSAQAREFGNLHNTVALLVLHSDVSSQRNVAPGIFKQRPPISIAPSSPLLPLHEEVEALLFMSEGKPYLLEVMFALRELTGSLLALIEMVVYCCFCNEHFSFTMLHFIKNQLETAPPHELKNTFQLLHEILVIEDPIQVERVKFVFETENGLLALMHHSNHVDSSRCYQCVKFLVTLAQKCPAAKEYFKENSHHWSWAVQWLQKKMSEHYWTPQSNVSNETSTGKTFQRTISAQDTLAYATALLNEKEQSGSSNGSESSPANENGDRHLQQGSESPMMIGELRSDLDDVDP
The test is described as follows: two-hybrid; yeast two-hybrid screen with the C-terminal end of USP24 (a.a. 2078-2620) as bait; no methods given.

For test [2], the target named is endogenous USP24 (mouse embryonic fibroblasts) (mouse (endogenous in MEFs)) (UniProt B1AY13). The experiment in a line: co-IP; lysate of mouse embryonic fibroblasts (MEFs), co-IP of USP24 with BRD7 or HA-tagged proteins (Suppl. Fig. 3).
For test [3], the target named is endogenous USP24 (H1299 cells) (human (endogenous in H1299)) (UniProt Q9UPU5). The experiment in a line: co-IP; H1299 cell lysate, IP with anti-USP24 (1:200, 4 °C, 12 h), protein G-Sepharose, Western blot with anti-BRD7 or anti-HA. A general note: Immunoblotting shows a protein as a band on a membrane.

Consider “BRD2 (yeast two-hybrid prey) (from UniProt P25440 1-801)”, for which the binding result in test [1] is on record as “binds”.
Turning to HA-BRG1 (from UniProt P51532 1-1647), the binding entry in test [2] and in test [3] was “binds” each time.

B1: endogenous BRD7 (mouse embryonic fibroblasts) (protein, UniProt O88665 1-651)
chain: MGKKHKKHKSDRHFYEEYVEKPLKLVLKVGGSEVTELSTGSSGHDSSLFEDRSDHDKHKDRKRKKRKKGEKQAPGEEKGRKRRRVKEDKKKRDRDRAENEVDRDLQCHVPIRLDLPPEKPLTSSLAKQEEVEQTPLQEALNQLMRQLQRKDPSAFFSFPVTDFIAPGYSMIIKHPMDFSTMKEKIKNNDYQSIEELKDNFKLMCTNAMIYNKPETIYYKAAKKLLHSGMKILSQERIQSLKQSIDFMSDLQKTRKQKERTDACQSGEDSGCWQREREDSGDAETQAFRSPAKDNKRKDKDVLEDKWRSSNSEREHEQIERVVQESGGKLTRRLANSQCEFERRKPDGTTTLGLLHPVDPIVGEPGYCPVRLGMTTGRLQSGVNTLQGFKEDKRNRVTPVLYLNYGPYSSYAPHYDSTFANISKDDSDLIYSTYGEDSDLPNNFSISEFLATCQDYPYVMADSLLDVLTKGGHSRSLQDLDMSSPEDEGQTRALDTAKEAEITQIEPTGRLESSSQDRLTALQAVTTFGAPAEVFDSEEAEVFQRKLDETTRLLRELQEAQNERLSTRPPPNMICLLGPSYREMYLAEQVTNNLKELTQQVTPGDVVSIHGVRKAMGISVPSPIVGNSFVDLTGECEEPKETSTAECGPDAS
B1: in test [2], the binding result is “binds”.
